This is one part of the list.
Assays:
Assay in all cases: log2 fold change, soluble protein after heating vs DMSO (PISA); higher = thermal stabilisation; K562 lysate, 10 uM; active = over 0.2 and 3.5 SD of the protein, either way, in both replicates (recomputed)
erlotinib = compound: C#Cc1cccc(Nc2ncnc3cc(OCCOC)c(OCCOC)cc23)c1 [erlotinib]
How it was run: (§1)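 To prepare the extract, K562 pellets were dounce-homogenised in PBS pH 7.4 with 1 mM MgCl2, giving crude material at 1 mg/mL protein. This was treated with 10 μM compound for 30 min, then heated in aliquots for 3 min over 48°C-58°C before pooling and addition of NP-40 to 0.5% at 4°C. Centrifugation at 21,000xg for 90 min left soluble protein in the supernatant, which TMTpro 16plex LC-MS/MS quantified with equalised channel sums. Results are log-two fold changes in thermal stability compared with solvent controls, from duplicates.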

Protein sequences, listed by entry. Tags and fused reporters are not part of them. Lines headed by an entry give the natural chain unless they say otherwise; changes in a name come on top.
UniProt Q9Y3I1: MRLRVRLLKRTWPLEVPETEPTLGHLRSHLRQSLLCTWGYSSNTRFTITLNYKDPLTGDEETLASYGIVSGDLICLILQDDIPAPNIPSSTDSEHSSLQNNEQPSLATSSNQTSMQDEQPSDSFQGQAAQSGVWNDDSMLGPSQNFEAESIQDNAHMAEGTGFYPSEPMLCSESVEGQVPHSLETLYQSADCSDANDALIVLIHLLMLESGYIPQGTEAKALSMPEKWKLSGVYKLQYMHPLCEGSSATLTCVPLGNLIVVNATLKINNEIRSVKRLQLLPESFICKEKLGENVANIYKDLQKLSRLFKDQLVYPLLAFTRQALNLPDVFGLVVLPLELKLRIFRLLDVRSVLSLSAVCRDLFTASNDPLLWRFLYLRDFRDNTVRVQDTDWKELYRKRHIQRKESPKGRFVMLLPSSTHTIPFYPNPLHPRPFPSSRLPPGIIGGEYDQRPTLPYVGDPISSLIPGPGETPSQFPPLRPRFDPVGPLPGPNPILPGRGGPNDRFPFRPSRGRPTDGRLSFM
UniProt P49327, whole entry, looked up: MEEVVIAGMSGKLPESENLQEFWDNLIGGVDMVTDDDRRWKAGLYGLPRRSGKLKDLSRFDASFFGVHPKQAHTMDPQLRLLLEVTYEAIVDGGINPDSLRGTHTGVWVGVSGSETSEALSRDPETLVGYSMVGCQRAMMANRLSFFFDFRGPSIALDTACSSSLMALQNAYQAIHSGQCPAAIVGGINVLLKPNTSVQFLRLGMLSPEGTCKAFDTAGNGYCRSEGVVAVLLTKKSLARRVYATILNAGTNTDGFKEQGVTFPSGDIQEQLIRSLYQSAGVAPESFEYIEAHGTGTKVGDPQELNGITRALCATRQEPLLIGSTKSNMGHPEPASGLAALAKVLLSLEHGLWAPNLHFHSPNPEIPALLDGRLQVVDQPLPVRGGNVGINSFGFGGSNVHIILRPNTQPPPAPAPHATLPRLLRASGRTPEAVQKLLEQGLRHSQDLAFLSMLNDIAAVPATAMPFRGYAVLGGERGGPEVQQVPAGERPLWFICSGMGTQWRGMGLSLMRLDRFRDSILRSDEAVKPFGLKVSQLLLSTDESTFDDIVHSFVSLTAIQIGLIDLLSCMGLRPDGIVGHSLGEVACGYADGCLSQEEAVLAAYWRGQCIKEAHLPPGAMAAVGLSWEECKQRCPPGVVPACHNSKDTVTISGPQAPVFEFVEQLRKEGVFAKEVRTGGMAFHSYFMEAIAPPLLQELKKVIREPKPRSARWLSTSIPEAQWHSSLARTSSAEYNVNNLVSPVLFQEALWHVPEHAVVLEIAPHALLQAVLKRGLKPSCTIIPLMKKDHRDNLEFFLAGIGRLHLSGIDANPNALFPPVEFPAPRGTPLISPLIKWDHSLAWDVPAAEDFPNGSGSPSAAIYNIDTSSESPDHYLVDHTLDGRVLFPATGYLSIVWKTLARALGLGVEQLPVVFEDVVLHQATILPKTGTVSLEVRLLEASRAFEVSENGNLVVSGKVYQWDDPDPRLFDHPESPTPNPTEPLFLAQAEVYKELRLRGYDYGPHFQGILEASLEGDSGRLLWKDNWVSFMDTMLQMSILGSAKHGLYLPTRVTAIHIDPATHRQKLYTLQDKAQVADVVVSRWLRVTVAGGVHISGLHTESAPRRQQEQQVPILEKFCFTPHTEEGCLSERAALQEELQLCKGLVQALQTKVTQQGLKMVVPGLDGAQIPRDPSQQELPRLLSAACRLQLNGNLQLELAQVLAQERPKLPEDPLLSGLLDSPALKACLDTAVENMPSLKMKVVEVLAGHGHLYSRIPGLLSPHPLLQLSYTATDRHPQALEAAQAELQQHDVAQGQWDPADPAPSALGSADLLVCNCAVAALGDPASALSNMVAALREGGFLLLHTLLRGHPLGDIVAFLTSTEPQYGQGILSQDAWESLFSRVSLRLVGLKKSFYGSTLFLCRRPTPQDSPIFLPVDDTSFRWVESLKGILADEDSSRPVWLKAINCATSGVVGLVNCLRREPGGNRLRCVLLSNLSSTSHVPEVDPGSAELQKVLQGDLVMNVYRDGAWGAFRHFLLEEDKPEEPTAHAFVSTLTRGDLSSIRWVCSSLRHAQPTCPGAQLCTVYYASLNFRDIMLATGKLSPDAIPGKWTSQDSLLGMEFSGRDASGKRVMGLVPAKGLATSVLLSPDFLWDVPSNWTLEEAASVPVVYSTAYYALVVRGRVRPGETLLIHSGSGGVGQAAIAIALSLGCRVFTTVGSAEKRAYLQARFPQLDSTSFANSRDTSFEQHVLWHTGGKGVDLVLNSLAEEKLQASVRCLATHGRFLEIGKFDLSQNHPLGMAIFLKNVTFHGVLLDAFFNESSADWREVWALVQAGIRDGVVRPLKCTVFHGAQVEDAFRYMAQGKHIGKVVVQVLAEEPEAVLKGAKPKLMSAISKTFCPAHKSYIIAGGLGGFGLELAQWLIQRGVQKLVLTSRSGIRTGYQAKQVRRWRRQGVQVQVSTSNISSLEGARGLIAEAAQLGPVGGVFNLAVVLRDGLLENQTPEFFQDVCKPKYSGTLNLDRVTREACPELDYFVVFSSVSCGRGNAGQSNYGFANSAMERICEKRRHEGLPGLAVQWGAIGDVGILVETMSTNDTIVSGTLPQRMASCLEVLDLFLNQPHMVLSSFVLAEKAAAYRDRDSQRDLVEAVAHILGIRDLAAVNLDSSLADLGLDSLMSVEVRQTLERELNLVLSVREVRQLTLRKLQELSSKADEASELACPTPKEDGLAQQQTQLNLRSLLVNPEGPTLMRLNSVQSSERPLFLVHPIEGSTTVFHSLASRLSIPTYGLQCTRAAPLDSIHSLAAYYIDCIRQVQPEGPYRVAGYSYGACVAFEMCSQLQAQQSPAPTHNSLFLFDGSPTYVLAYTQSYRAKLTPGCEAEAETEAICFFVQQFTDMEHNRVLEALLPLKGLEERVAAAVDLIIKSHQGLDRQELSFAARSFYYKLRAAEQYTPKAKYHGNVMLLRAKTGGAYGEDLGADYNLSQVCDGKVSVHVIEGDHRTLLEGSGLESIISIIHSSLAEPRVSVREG
UniProt Q5XUX1: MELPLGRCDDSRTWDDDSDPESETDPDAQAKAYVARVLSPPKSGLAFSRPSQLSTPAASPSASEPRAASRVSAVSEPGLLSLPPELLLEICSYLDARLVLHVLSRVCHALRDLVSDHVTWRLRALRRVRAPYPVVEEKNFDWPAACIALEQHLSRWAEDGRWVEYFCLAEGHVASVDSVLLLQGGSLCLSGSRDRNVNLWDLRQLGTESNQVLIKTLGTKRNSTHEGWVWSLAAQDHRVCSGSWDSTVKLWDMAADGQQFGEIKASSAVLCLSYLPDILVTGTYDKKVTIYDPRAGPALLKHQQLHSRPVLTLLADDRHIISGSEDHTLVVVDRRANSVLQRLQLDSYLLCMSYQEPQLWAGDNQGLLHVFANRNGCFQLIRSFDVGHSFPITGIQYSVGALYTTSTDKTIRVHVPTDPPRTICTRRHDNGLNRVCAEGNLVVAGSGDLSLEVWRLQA
UniProt Q9NWM8: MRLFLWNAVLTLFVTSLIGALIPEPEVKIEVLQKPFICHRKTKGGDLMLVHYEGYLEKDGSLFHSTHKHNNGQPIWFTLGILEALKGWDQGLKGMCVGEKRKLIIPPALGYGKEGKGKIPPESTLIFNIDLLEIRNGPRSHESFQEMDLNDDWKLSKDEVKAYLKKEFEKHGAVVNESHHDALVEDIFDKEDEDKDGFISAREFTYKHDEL
UniProt Q13643: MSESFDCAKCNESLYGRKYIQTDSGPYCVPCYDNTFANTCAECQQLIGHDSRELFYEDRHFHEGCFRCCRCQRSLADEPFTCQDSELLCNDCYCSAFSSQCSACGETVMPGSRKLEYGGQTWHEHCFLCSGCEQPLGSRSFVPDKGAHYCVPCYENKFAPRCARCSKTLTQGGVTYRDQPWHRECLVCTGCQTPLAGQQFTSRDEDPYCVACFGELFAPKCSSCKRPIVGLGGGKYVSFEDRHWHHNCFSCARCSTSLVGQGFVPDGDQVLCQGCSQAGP
UniProt Q96CP2: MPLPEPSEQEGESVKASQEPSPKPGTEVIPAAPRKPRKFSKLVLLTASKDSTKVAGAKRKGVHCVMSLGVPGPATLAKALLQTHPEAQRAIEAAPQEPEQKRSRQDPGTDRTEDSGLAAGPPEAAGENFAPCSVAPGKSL
UniProt Q9Y680: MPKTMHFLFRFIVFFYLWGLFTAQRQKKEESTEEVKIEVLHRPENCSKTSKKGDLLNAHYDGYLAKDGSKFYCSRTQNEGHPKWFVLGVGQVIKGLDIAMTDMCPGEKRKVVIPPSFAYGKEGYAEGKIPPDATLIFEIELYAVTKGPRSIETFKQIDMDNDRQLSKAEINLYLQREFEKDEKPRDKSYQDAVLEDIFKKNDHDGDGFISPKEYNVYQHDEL
UniProt Q9NVK5: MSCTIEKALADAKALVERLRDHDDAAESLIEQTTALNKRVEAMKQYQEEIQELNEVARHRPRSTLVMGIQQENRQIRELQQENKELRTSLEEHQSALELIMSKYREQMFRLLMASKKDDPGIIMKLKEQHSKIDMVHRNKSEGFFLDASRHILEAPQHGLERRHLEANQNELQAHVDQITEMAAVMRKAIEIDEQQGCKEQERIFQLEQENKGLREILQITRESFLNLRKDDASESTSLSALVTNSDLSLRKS
UniProt P10109: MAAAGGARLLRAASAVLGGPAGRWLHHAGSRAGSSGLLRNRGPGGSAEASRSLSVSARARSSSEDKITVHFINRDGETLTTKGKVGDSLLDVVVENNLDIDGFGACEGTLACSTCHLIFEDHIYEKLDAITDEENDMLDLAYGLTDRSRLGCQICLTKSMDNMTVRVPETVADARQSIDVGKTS
UniProt Q14254: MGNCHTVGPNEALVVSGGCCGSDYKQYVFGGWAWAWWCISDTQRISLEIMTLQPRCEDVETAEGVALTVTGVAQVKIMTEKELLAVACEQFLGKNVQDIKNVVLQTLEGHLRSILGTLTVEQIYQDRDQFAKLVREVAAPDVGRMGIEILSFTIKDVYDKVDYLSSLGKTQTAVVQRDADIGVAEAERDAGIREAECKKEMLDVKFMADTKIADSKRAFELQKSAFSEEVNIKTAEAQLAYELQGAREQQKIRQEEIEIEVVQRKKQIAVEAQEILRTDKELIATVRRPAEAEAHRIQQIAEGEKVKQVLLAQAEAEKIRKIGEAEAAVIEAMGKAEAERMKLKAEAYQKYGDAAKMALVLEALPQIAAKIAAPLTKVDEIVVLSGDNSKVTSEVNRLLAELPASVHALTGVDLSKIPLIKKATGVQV
UniProt Q00688: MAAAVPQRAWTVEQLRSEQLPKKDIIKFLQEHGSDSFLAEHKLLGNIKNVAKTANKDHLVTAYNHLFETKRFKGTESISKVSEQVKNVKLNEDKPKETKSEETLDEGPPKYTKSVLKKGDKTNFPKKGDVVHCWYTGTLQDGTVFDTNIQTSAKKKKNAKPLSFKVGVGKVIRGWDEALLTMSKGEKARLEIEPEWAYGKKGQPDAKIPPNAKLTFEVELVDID
UniProt Q8NEZ5: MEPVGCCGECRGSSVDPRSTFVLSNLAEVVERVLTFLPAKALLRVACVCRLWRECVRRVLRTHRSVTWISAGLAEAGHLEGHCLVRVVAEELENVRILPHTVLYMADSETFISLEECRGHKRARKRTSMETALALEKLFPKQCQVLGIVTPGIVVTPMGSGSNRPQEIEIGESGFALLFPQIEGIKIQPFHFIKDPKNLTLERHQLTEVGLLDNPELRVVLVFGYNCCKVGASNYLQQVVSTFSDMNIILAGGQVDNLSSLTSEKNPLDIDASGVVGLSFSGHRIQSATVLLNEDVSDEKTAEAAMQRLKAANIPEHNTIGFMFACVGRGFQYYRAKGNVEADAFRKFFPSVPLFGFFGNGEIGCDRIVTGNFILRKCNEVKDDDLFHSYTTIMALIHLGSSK
UniProt Q8WVX9: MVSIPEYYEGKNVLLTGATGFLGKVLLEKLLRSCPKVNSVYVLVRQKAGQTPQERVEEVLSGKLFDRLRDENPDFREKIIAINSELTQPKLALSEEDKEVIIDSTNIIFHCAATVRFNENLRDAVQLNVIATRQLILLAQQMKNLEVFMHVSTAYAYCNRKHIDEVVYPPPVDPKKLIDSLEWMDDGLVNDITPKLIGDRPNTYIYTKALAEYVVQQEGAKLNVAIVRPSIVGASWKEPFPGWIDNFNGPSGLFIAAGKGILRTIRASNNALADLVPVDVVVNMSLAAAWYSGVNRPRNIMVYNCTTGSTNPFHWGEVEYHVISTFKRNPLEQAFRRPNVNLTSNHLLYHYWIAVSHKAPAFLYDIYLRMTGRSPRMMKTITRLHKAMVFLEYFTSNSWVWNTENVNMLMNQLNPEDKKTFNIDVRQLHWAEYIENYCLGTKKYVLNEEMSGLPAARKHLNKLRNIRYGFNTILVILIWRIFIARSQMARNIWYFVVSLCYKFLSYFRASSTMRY
UniProt P62942, whole entry, looked up: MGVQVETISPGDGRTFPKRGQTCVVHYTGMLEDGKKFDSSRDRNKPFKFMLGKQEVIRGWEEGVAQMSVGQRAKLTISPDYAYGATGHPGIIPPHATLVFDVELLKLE

[1] = compound: C/C(=N\NC(=O)C1=CC(=CC=C1)S(=O)(=O)N2CCOCC2)/C3=C(C=CC(=C3)Cl)O
How it was run: as §1

[2] = compound: C1=CC(=CC=C1C2=NC3=C(N2)C=C(C=C3)C(=O)N)OC4=CC=C(C=C4)Cl
How it was run: as §1

[3] = compound: C1=CC2=C(C=CC(=C2)/C=C\3/C(=O)NC(=NCC4=CC=CS4)S3)N=C1
How it was run: as §1

[4] = compound: C1=CC2=NC=CN=C2C=C1/C=C/3\C(=O)NC(=O)S3
How it was run: as §1

[5] = compound: C1=CC=C(C=C1)C2=NC(=C(N2)C3=CC=NC=C3)C4=CC(=C(C=C4)Cl)O
How it was run: as §1

[6] = compound: C1=CC=C2C(=C1)C3=NNC4=CC=CC(=C43)C2=O
How it was run: as §1

[7] = compound: C1CCN(C1)C(=O)NC2=CC=CC(=C2)NC3=NC=C(C(=N3)NCCC4=CN=CN4)Br
How it was run: as §1

[8] = compound: C1CN(CCC1(CC2=CC=C(C=C2)Cl)N)C3=NC=NC4=C3C=CN4
How it was run: as §1

IRAK-1-4 Inhibitor I = compound: C1COCCN1CCN2C3=CC=CC=C3N=C2NC(=O)C4=CC(=CC=C4)[N+](=O)[O-] [IRAK-1-4 Inhibitor I]
How it was run: as §1

ibrutinib = compound: C=CC(=O)N1CCC[C@@H](n2nc(-c3ccc(Oc4ccccc4)cc3)c3c(N)ncnc32)C1 [ibrutinib]
How it was run: as §1

[9] = compound: CC(=O)c1cnc2ccc(-c3cc(Cl)c(O)c(Cl)c3)nc2c1N[C@H]1CC[C@H](CN(C)C)CC1
How it was run: as §1

ralimetinib = compound: CC(C)(C)Cn1c(N)nc2ccc(-c3[nH]c(C(C)(C)C)nc3-c3ccc(F)cc3)nc21 [ralimetinib]
How it was run: as §1

[10] = compound: CC(C)(O)CC(=O)NCCn1ccc2ncnc(Nc3ccc(Oc4cccc(C(F)(F)F)c4)c(Cl)c3)c21
How it was run: as §1

[11] = compound: CC(C)C1=C2N=C(C=C(N2N=C1)NCC3=CC=CC=C3)NCCCCCCN
How it was run: as §1

[12] = compound: CC1=C(C(CC(=O)N1)C2=CC=C(C=C2)C(F)(F)F)C(=O)NC3=C(C=C4C(=C3)C=NN4)F
How it was run: as §1

[13] = compound: CC1=C(C2=C(C=C1)C(=O)C3=CC=CC=C3N2CCCN)C
How it was run: as §1

[14] = compound: CC1=C(C=C(C=C1)NC(=O)C2=CC(=CC=C2)C(C)(C)C#N)NC3=CC4=C(C=C3)N=CN(C4=O)C
How it was run: as §1

[15] = compound: CC1=C(C=C(C=C1)NC(=O)C2=CC(=CC=C2)N(C)C)NC(=O)C3=CC=C(C=C3)O
How it was run: as §1

[16] = compound: CC1=CC=C(C=C1)SC2=C3C=C(SC3=CN=C2)C(=O)N
How it was run: as §1

Measured: log2 fold change

FBXO7 (UniProt Q9Y3I1)
inactive: erlotinib -0.026 | [1] 0.027 | [2] 0.04 | [3] -0.009 | [4] 0.006 | [5] -0.002 | [6] -0.029 | [7] -0.037 | [8] -0.015 | IRAK-1-4 Inhibitor I 0.035 | ibrutinib -0.002 | [9] -0.018 | ralimetinib -0.003 | [10] -0.022 | [11] 0.02 | [12] 0.034 | [13] -0.003 | [14] -0.007 | [15] 0.018 | [16] -0.002

FASN (UniProt P49327)
inactive: erlotinib 0.011 | [1] 0.055 | [2] -0.004 | [3] 0.006 | [4] 0.011 | [5] -0.003 | [6] -0.006 | [7] -0.004 | [8] 0.014 | IRAK-1-4 Inhibitor I -0.007 | ibrutinib -0.009 | [9] -0.012 | ralimetinib 0.005 | [10] 0.01 | [11] 0.016 | [12] -0.018 | [13] 0.006 | [14] 0.026 | [15] -0.008 | [16] 0.014

FNTA (UniProt P49354)
inactive: erlotinib -0.044 | [1] 0.046 | [2] -0.052 | [3] -0.014 | [4] 0.021 | [5] 0.054 | [6] 0.027 | [7] -0.012 | [8] -0.011 | IRAK-1-4 Inhibitor I 0.001 | ibrutinib 0.011 | [9] 0.006 | ralimetinib -0.031 | [10] -0.006 | [11] -0.021 | [12] 0.016 | [13] -0.006 | [14] 0.049 | [15] -0.014 | [16] 0.012

FBXW9 (UniProt Q5XUX1)
inactive: erlotinib 0.001 | [1] 0.023 | [2] 0.003 | [3] -0.023 | [4] -0.016 | [5] 0 | [6] -0.018 | [7] -0.025 | [8] -0.049 | IRAK-1-4 Inhibitor I 0.006 | ibrutinib -0.023 | [9] 0.008 | ralimetinib 0.01 | [10] -0.05 | [11] -0.027 | [12] -0.034 | [13] -0.009 | [14] 0.049 | [15] 0.054 | [16] -0.03

FKBP14 (UniProt Q9NWM8)
inactive: erlotinib -0.005 | [1] 0.022 | [2] 0.032 | [3] -0.011 | [4] 0.005 | [5] -0.03 | [6] -0.004 | [7] -0.004 | [8] -0.017 | IRAK-1-4 Inhibitor I 0.015 | ibrutinib -0.016 | [9] -0.007 | ralimetinib 0.03 | [10] -0.036 | [11] 0.005 | [12] -0.01 | [13] 0.024 | [14] -0.061 | [15] -0.037 | [16] 0.03

FHL3 (UniProt Q13643)
inactive: erlotinib -0.001 | [1] -0.032 | [2] 0.011 | [3] 0.007 | [4] -0.002 | [5] 0.018 | [6] 0.087 | [7] 0.003 | [8] -0.016 | IRAK-1-4 Inhibitor I -0.037 | ibrutinib 0.022 | [9] -0.013 | ralimetinib 0.015 | [10] -0.01 | [11] -0.045 | [12] -0.012 | [13] -0.026 | [14] 0.012 | [15] -0.026 | [16] -0.007

Reprinted from the entries so far (two entries):
FBXO7 (UniProt Q9Y3I1)
inactive: erlotinib -0.026 | [1] 0.027 | [2] 0.04 | [3] -0.009 | [4] 0.006 | [5] -0.002 | [6] -0.029 | [7] -0.037 | [8] -0.015 | IRAK-1-4 Inhibitor I 0.035 | ibrutinib -0.002 | [9] -0.018 | ralimetinib -0.003 | [10] -0.022 | [11] 0.02 | [12] 0.034 | [13] -0.003 | [14] -0.007 | [15] 0.018 | [16] -0.002

FASN (UniProt P49327)
inactive: erlotinib 0.011 | [1] 0.055 | [2] -0.004 | [3] 0.006 | [4] 0.011 | [5] -0.003 | [6] -0.006 | [7] -0.004 | [8] 0.014 | IRAK-1-4 Inhibitor I -0.007 | ibrutinib -0.009 | [9] -0.012 | ralimetinib 0.005 | [10] 0.01 | [11] 0.016 | [12] -0.018 | [13] 0.006 | [14] 0.026 | [15] -0.008 | [16] 0.014

Following part:

FLYWCH2 (UniProt Q96CP2)
inactive: erlotinib -0.062 | [1] 0.045 | [2] 0.016 | [3] -0.029 | [4] 0.015 | [5] 0.034 | [6] 0.087 | [7] -0.006 | [8] 0.009 | IRAK-1-4 Inhibitor I 0.027 | ibrutinib 0.019 | [9] 0.02 | ralimetinib -0.004 | [10] 0.009 | [11] -0.022 | [12] 0.009 | [13] 0.011 | [14] 0.024 | [15] -0.05 | [16] -0.041

FKBP7 (UniProt Q9Y680)
inactive: erlotinib -0.062 | [1] -0.006 | [2] -0.013 | [3] 0.011 | [4] -0.042 | [5] 0.01 | [6] -0.01 | [7] -0.015 | [8] 0.011 | IRAK-1-4 Inhibitor I -0.005 | ibrutinib 0.088 | [9] -0.016 | ralimetinib -0.003 | [10] -0.11 | [11] -0.005 | [12] 0.053 | [13] 0.068 | [14] 0.024 | [15] 0.018 | [16] 0.001

FGFR1OP2 (UniProt Q9NVK5)
inactive: erlotinib 0.002 | [1] -0.002 | [2] 0.021 | [3] -0.01 | [4] 0.006 | [5] 0.049 | [6] -0.024 | [7] 0.067 | [8] -0.016 | IRAK-1-4 Inhibitor I 0.026 | ibrutinib -0.006 | [9] -0.033 | ralimetinib -0.017 | [10] 0 | [11] -0.073 | [12] 0.006 | [13] -0.03 | [14] 0.002 | [15] -0.045 | [16] -0.037

FDX1 (UniProt P10109)
inactive: erlotinib -0.05 | [1] 0.008 | [2] 0.077 | [3] 0.034 | [4] -0.073 | [5] -0.043 | [6] -0.01 | [7] -0.017 | [8] 0.019 | IRAK-1-4 Inhibitor I 0.029 | ibrutinib 0.06 | [9] -0.03 | ralimetinib -0.021 | [10] 0.019 | [11] -0.08 | [12] 0.034 | [13] -0.038 | [14] 0.123 | [15] -0.002 | [16] -0.013

FER (UniProt P16591)
inactive: erlotinib 0.157 | [1] 0.006 | [2] -0.223 | [3] -0.107 | [4] -0.197 | [5] -0.196 | [6] 0.047 | [7] -0.009 | [8] -0.072 | IRAK-1-4 Inhibitor I 0.311 | ibrutinib 0.103 | [9] -0.121 | ralimetinib 0.036 | [10] 0.022 | [11] -0.209 | [12] 0.305 | [13] -0.099 | [14] -0.063 | [15] 0.038 | [16] -0.139

FLOT2 (UniProt Q14254)
inactive: erlotinib 0.008 | [1] 0.048 | [2] 0.039 | [3] -0.021 | [4] -0.015 | [5] -0.014 | [6] 0.029 | [7] -0.008 | [8] 0.002 | IRAK-1-4 Inhibitor I 0.027 | ibrutinib 0.006 | [9] -0.016 | ralimetinib -0.003 | [10] -0.023 | [11] -0.009 | [12] -0.045 | [13] -0.014 | [14] -0.003 | [15] 0.005 | [16] -0.015

FKBP3 (UniProt Q00688)
inactive: erlotinib 0 | [1] -0.006 | [2] 0.03 | [3] -0.033 | [4] -0.005 | [5] 0.004 | [6] -0.001 | [7] 0.017 | [8] 0.036 | IRAK-1-4 Inhibitor I 0.004 | ibrutinib -0.036 | [9] -0.013 | ralimetinib -0.002 | [10] -0.003 | [11] 0.044 | [12] -0.027 | [13] 0.016 | [14] 0.008 | [15] -0.017 | [16] -0.017

FBXO22 (UniProt Q8NEZ5)
inactive: erlotinib 0.042 | [1] -0.022 | [2] 0.048 | [3] 0.016 | [4] 0.02 | [5] -0.002 | [6] -0.01 | [7] 0.029 | [8] 0.049 | IRAK-1-4 Inhibitor I 0.007 | ibrutinib -0.03 | [9] 0.017 | ralimetinib 0.003 | [10] -0.06 | [11] -0.078 | [12] -0.026 | [13] -0.006 | [14] 0.016 | [15] 0 | [16] -0.014

FAR1 (UniProt Q8WVX9)
inactive: erlotinib 0.044 | [1] 0.063 | [2] -0.226 | [3] -0.033 | [4] 0.107 | [5] 0.013 | [6] -0.023 | [7] -0.102 | [8] 0.028 | IRAK-1-4 Inhibitor I -0.005 | ibrutinib 0.035 | [9] -0.127 | ralimetinib 0.017 | [10] -0.119 | [11] 0.117 | [12] 0.011 | [13] 0.031 | [14] -0.008 | [15] 0.006 | [16] -0.067

FKBP1A (UniProt P62942)
inactive: erlotinib -0.024 | [1] 0.063 | [2] 0.015 | [3] -0.061 | [4] 0 | [5] 0.024 | [6] 0.091 | [7] -0.044 | [8] 0.062 | IRAK-1-4 Inhibitor I 0.071 | ibrutinib 0.083 | [9] -0.103 | ralimetinib 0.188 | [10] -0.054 | [11] 0.049 | [12] -0.022 | [13] -0.013 | [14] 0.084 | [15] 0.018 | [16] 0.187

From the supplement of paper PMC10849652
